Values from PubChem BioAssay AID686938 (Drosophila RNAi Screening Center, 2013)
The screen tested about 23,000 reagents; below is a random part of those with a known target gene and a result. Of all reagents, 75 (0.33%) were called active. 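Raw plate signals without normalisation; calls rest on plate z-scores that were not deposited; ratio present for only 364 wells.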 A plus sign joins genes that one reagent is predicted to hit. Not stated in the record: the dose of the treatment.

Assay: 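Looking for CRAC channel components and the factors controlling them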 (primary screen)
Cell system: Drosophila S2R+ cells
Reagent: long dsRNA against Drosophila genes, about 0.25 µg dsRNA per well, roughly 10,000 cells
Duration: 5 days of knock-down before the calcium assay
Conditions: thapsigargin (SERCA pump blocker) to empty calcium stores; entry signal taken 4 min after adding it
Detection: 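Per-well fluo-4 fluorescence in two replicates, unnormalised, measured in resting cells and 4 min after store depletion by the SERCA blocker thapsigargin; ratio of the two present in few wells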
Reading the numbers: calcium entry signal: higher = stronger calcium signal after store depletion; resting calcium signal: higher = higher resting calcium signal
Hit rule: 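Hit if the duplicate-averaged plate z-score for entry over resting signal is under −3; wells with weak total dye signal (Fmax z < −2) or more than 5 off-targets removed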
Meaning of the calls: active = strongly reduced calcium entry; inactive = no strong reduction

| gene | dsRNA | calcium entry signal, replicate 1 (fluorescence units) | calcium entry signal, replicate 2 (fluorescence units) | resting calcium signal, replicate 1 (fluorescence units) | resting calcium signal, replicate 2 (fluorescence units) | outcome |
| --- | --- | --- | --- | --- | --- | --- |
| CG11828 | DRSC14394 | 3.62e7 | 5.83e7 | 1.94e7 | 2.57e7 | inactive |
| CG11828 | DRSC22580 | 3.13e7 | 3.36e7 | 1.70e7 | 1.57e7 | inactive |
| Cyp4d20 | DRSC08654 | 3.25e7 | 3.75e7 | 1.70e7 | 1.70e7 | inactive |
| CG31075 | DRSC16016 | 3.54e7 | 5.13e7 | 1.73e7 | 2.28e7 | inactive |
| CG13220 | DRSC06342 | 2.36e7 | 4.25e7 | 1.27e7 | 1.73e7 | inactive |
| Acadvl | DRSC07022 | 3.12e7 | 2.62e7 | 1.54e7 | 1.37e7 | inactive |
| Cpr56F | DRSC07326 | 5.22e7 | 5.72e7 | 2.32e7 | 2.68e7 | inactive |
| alpha4GT1 | DRSC00488 | 4.09e7 | – | 2.35e7 | – | inactive |
| prel | DRSC07271 | 3.18e7 | 2.54e7 | 1.37e7 | 1.26e7 | inactive |
| CG40378 (retired record) | DRSC20958 | 2.82e7 | 3.48e7 | 1.39e7 | 1.56e7 | inactive |
| CG40378 (retired record) | DRSC22174 | 3.47e7 | 2.82e7 | 2.13e7 | 1.49e7 | inactive |
| Srrm234 | DRSC07955 | 3.71e7 | 3.02e7 | 1.67e7 | 1.26e7 | inactive |
| Srrm234 | DRSC08606 | 3.91e7 | 3.73e7 | 1.69e7 | 1.87e7 | inactive |
| CG3222 | DRSC10355 | 3.07e7 | 4.00e7 | 1.52e7 | 1.67e7 | inactive |
| Fs(2)Ket | DRSC03328 | 8.96e6 | – | 8.08e6 | – | inactive |
| plu | DRSC07665 | 5.46e7 | 5.36e7 | 2.45e7 | 2.64e7 | inactive |
| CG7011 + Prp31 | DRSC10760 | 3.56e7 | 4.48e7 | 1.69e7 | 2.99e7 | inactive |
| mbl | DRSC05657 | 3.81e7 | 4.98e7 | 1.74e7 | 2.23e7 | inactive |
| mbl | DRSC06449 | 2.49e7 | 2.48e7 | 1.14e7 | 1.13e7 | inactive |
| mbl | DRSC07651 | 4.87e7 | 4.67e7 | 2.56e7 | 2.45e7 | inactive |
| mbl | DRSC23188 | 4.90e7 | 4.52e7 | 2.34e7 | 1.95e7 | inactive |
| CG1943 | DRSC12576 | 4.36e7 | 3.47e7 | 2.26e7 | 1.64e7 | inactive |
| Eno | DRSC00750 | 2.98e7 | 4.46e7 | 1.62e7 | 1.82e7 | inactive |
| CG17047 | DRSC06648 | 2.59e7 | 3.93e7 | 1.38e7 | 1.84e7 | inactive |
| SLIRP1 + anox | DRSC20542 | 3.17e7 | 2.98e7 | 1.45e7 | 1.48e7 | inactive |
| CG1578 | DRSC19729 | 2.76e7 | 2.96e7 | 1.30e7 | 1.53e7 | inactive |
| CG13065 | DRSC09948 | 3.24e7 | 5.57e7 | 1.75e7 | 2.25e7 | inactive |
| DNAlig3 | DRSC15201 | 3.47e7 | 3.60e7 | 1.78e7 | 1.96e7 | inactive |
| asp | DRSC16903 | 5.49e7 | 4.34e7 | 2.48e7 | 1.82e7 | inactive |
| CG11842 | DRSC14400 | 2.67e7 | 2.43e7 | 1.37e7 | 1.14e7 | inactive |
| CG11370 | DRSC11653 | 1.59e7 | 2.49e7 | 9.55e6 | 1.27e7 | inactive |
| Arp10 | DRSC19448 | 3.79e7 | 3.92e7 | 1.81e7 | 1.72e7 | inactive |
| Bug22 | DRSC02842 | 3.68e7 | 5.66e7 | 1.65e7 | 1.95e7 | inactive |
| CG12075 | DRSC17801 | 3.32e7 | 3.61e7 | 1.60e7 | 1.59e7 | inactive |
| AspRS-m | DRSC02646 | 3.92e7 | 2.51e7 | 1.75e7 | 1.13e7 | inactive |
| CG14410 | DRSC19596 | 3.07e7 | 3.45e7 | 1.54e7 | 1.34e7 | inactive |
| CG8768 | DRSC07259 | 4.61e7 | 3.93e7 | 1.84e7 | 1.92e7 | inactive |
| Cks85A | DRSC16562 | 4.45e7 | 4.23e7 | 2.18e7 | 2.04e7 | inactive |
| Cyp6a15Psi | DRSC07377 | 3.62e7 | 4.03e7 | 1.96e7 | 1.92e7 | inactive |
| CG13484 | DRSC10026 | 3.43e7 | 3.49e7 | 1.57e7 | 1.51e7 | inactive |

Laid out differently: 2 of the entries above
CG17047 [DRSC06648] — calcium entry signal, replicate 1 (fluorescence units): 2.59e7; calcium entry signal, replicate 2 (fluorescence units): 3.93e7; resting calcium signal, replicate 1 (fluorescence units): 1.38e7; resting calcium signal, replicate 2 (fluorescence units): 1.84e7; outcome: inactive
SLIRP1 + anox [DRSC20542] — calcium entry signal, replicate 1 (fluorescence units): 3.17e7; calcium entry signal, replicate 2 (fluorescence units): 2.98e7; resting calcium signal, replicate 1 (fluorescence units): 1.45e7; resting calcium signal, replicate 2 (fluorescence units): 1.48e7; outcome: inactive
